At least one peptide structure holds a part that was inferred or is arguable (an end, a ring closure or a residue). Bridge positions count the residues as written; N and C are the ends. Square brackets hold non-standard residues; d marks the D form. Peptide text beside a SMILES is read from it. * marks the point of attachment. Myristoyl = CCCCCCCCCCCCCC(=O)*; Lauroyl = CCCCCCCCCCCC(=O)*; Octanoyl = CCCCCCCC(=O)*
Legend:
[1] = test system: IL-8; assay: In vitro chemotaxis, inhibition v IL-8; assay type: cell-based, human; design: concentration or dose not given beside the values
Description: To determine whether an agent inhibits a chemokine-induced activity, such as macrophage recruitment, varying amounts of the agent are mixed with cells in the presence of a known chemoattractant. For example, a range of known concentrations of an agent, e.g., a chemokine peptide, is incubated with a defined number (e.g., 10^4-10^6) of human THP-1 monocyte cells in individual wells of the top compartment of a trans-well plate. Chemokine, at a concentration known to cause significant migration of THP-1 cells in the trans-well migration assay, is placed in the lower compartment of a trans-well plate. Cells are then incubated at 37° C. for a period sufficient to allow migration, e.g., 4 hours. After incubation, the cells are gently removed from the top of the filter with a pipette, 20 μl of 20 mM EDTA in simple PBS is added into each top well, and incubated for 20 minutes at 4° C. The filter is carefully flushed with media using a gentle flow, and removed. A standard curve consisting of a two-fold dilution series of THP-1 cells (in 29 μl) is placed to accurately quantify the number of cells that have migrated. Migrated cells are stained with 3 μl of MTT stock dye solution which is added directly into each well (5 mg/ml in RPMI-1640 without phenol red) (Sigma Chemical Co., St. Louis, Mo., USA) and incubated at 37° C. for 4 hours. The media is carefully aspirated from each well, and the converted dye is solubilized by 20 μl of DMSO. Absorbance of converted dye is measured at a wavelength of 595 nm using an ELISA plate reader. The number of migrated cells in each well is then determined by interpolation of the standard curve (see also Imai et al., J. Biol. Chem., 272:15036, 1997). Any method suitable for counting cells can be used, for example, counting with a hemocytometer, incubation of the cells with MTT (see above), or FACS analysis. A negative control assay is also performed, using TGFβ or another non-chemokine chemoattractant (e.g., IL1β or TNFα). To assess whether the agent is cytotoxic, the same concentrations of agent are incubated with THP-1 cells. […]

[2] = test system: MCP-1; assay: In vitro chemotaxis (trans-well migration) v MCP-1; assay type: cell-based, human
Description: To determine whether an agent inhibits a chemokine-induced activity, such as macrophage recruitment, varying amounts of the agent are mixed with cells in the presence of a known chemoattractant. For example, a range of known concentrations of an agent, e.g., a chemokine peptide, is incubated with a defined number (e.g., 10^4-10^6) of human THP-1 monocyte cells in individual wells of the top compartment of a trans-well plate. Chemokine, at a concentration known to cause significant migration of THP-1 cells in the trans-well migration assay, is placed in the lower compartment of a trans-well plate. Cells are then incubated at 37° C. for a period sufficient to allow migration, e.g., 4 hours. After incubation, the cells are gently removed from the top of the filter with a pipette, 20 μl of 20 mM EDTA in simple PBS is added into each top well, and incubated for 20 minutes at 4° C. The filter is carefully flushed with media using a gentle flow, and removed. A standard curve consisting of a two-fold dilution series of THP-1 cells (in 29 μl) is placed to accurately quantify the number of cells that have migrated. Migrated cells are stained with 3 μl of MTT stock dye solution which is added directly into each well (5 mg/ml in RPMI-1640 without phenol red) (Sigma Chemical Co., St. Louis, Mo., USA) and incubated at 37° C. for 4 hours. The media is carefully aspirated from each well, and the converted dye is solubilized by 20 μl of DMSO. Absorbance of converted dye is measured at a wavelength of 595 nm using an ELISA plate reader. The number of migrated cells in each well is then determined by interpolation of the standard curve (see also Imai et al., J. Biol. Chem., 272:15036, 1997). Any method suitable for counting cells can be used, for example, counting with a hemocytometer, incubation of the cells with MTT (see above), or FACS analysis. A negative control assay is also performed, using TGFβ or another non-chemokine chemoattractant (e.g., IL1β or TNFα). To assess whether the agent is cytotoxic, the same concentrations of agent are incubated with THP-1 cells. Agents which 1) are not cytotoxic at levels which inhibit migration, 2) are ineffective at inhibiting the negative control-induced migration, and 3) reduce or inhibit chemokine-induced THP-1 migration, are agents which fall within the scope of the invention.

CCCCCCCCCCCCCC(=O)NCCCC[C@@H](N)C(=O)N[C@H](CC(=O)O)C(=O)N[C@H]1CSSC[C@@H](C(N)=O)NC(=O)[C@H](CCC(N)=O)NC(=O)[C@H]([C@@H](C)CC)NC(=O)[C@H](Cc2c[nH]c3ccccc23)NC(=O)[C@H](CCCCN)NC(=O)[C@H](CCC(N)=O)NC(=O)[C@H](CCCCN)NC(=O)[C@@H]2CCCN2C(=O)[C@H](CC(=O)O)NC(=O)[C@H](CC(C)C)NC1=O [Example 166, D-Lys(Nε-tetradecanoyl)-D-Asp-c(Cys-Leu-Asp-Pro-Lys-Gln-Lys-Trp-Ile-Gln-Cys)-NH2] (H-[dK](Myristoyl)[dD]CLDPKQKWIQC-NH2; disulfide 3-13)
v IL-8 inhibition (%) [1]: 100.7% | EC50 [2]: 25 nM

CCCCCCCC(=O)NCCCC[C@@H](N)C(=O)N[C@H](CC(=O)O)C(=O)N[C@H]1CSSC[C@@H](C(N)=O)NC(=O)[C@H](CCC(N)=O)NC(=O)[C@H]([C@@H](C)CC)NC(=O)[C@H](Cc2c[nH]c3ccccc23)NC(=O)[C@H](CCCCN)NC(=O)[C@H](CCC(N)=O)NC(=O)[C@H](CCCCN)NC(=O)[C@@H]2CCCN2C(=O)[C@H](CC(=O)O)NC(=O)[C@H](CC(C)C)NC1=O [Example 168, D-Lys(Nε-octanoyl)-D-Asp-c(Cys-Leu-Asp-Pro-Lys-Gln-Lys-Trp-Ile-Gln-Cys)-NH2] (H-[dK](Octanoyl)[dD]CLDPKQKWIQC-NH2; disulfide 3-13)
v IL-8 inhibition (%) [1]: 21.3% | EC50 [2]: 600 nM

CCCCCCCCCCCC(=O)NCCCC[C@@H](N)C(=O)N[C@@H](CC(=O)O)C(=O)N[C@H]1CSSC[C@@H](C(N)=O)NC(=O)[C@H](CCC(N)=O)NC(=O)[C@H]([C@@H](C)CC)NC(=O)[C@H](Cc2c[nH]c3ccccc23)NC(=O)[C@H](CCCCN)NC(=O)[C@H](CCC(N)=O)NC(=O)[C@H](CCCCN)NC(=O)[C@@H]2CCCN2C(=O)[C@H](CC(=O)O)NC(=O)[C@H](CC(C)C)NC1=O [Example 172, D-Lys(Nε-dodecanoyl)-Asp-c(Cys-Leu-Asp-Pro-Lys-Gln-Lys-Trp-Ile-Gln-Cys)-NH2] (H-[dK](Lauroyl)DCLDPKQKWIQC-NH2; disulfide 3-13)
EC50 [2]: 333 nM

CCCCCCCC(=O)NCCCC[C@@H](NC(=O)[C@H]1CSSC[C@@H](N)C(=O)N[C@H](CCC(N)=O)C(=O)N[C@H]([C@H](C)CC)C(=O)N[C@H](Cc2c[nH]c3ccccc23)C(=O)N[C@H](CCCCN)C(=O)N[C@H](CCC(N)=O)C(=O)N[C@H](CCCCN)C(=O)N2CCC[C@@H]2C(=O)N[C@H](CC(=O)O)C(=O)N[C@H](CC(C)C)C(=O)N1)C(=O)O [Example 146, c(D-Cys-D-Gln-D-Ile-D-Trp-D-Lys-D-Gln-D-Lys-D-Pro-D-Asp-D-Leu-D-Cys)-D-Lys(N/-octanoyl)-OH] (H-[dC][dQ][dI][dW][dK][dQ][dK][dP][dD][dL][dC][dK](Octanoyl)-OH; disulfide 1-11)
v IL-8 inhibition (%) [1]: 46.3% | EC50 [2]: 800 nM

Source: patent US20110038885A1, “CHEMOKINE ANALOGS” (priority 2007, published 2011)
